We go through one sequence from PMC8805025.

The data set deals with CcNsdD2-C (C-terminal DNA-binding domain of CcNsdD2) (Coprinopsis cinerea AmutBmut (pab1-1)). Nature of the data set: EMSA. Particulars: competed by 20-fold cold probe; EMSA: 30 uL, 1x EMSA binding buffer (composition not given), 1.5 ug salmon sperm DNA, 50 ng probe, 4 ug CcNsdD2-C, 37 C 30 min; 5% PAGE in 1x TBE pH 8.3; recombinant protein; label: Cy5; probe letters rebuilt from the primers and the genome. Background: Mobility shift assays separate free from complexed probe on a gel.

The exact form of at least one protein or probe is not confirmed.

Consider “AGCACGTGGTCGAAAGTGGTTACTTTAACTAAATTCAGGGCACCCAAGCCTTGTGTCGATCTCGTGATCATCACACAAAATTCTGACGTCATTAAAAAAGATGTGTCTACATTCGGATTGAATCTTCGCAGCCTCGGAGAGTGTAGTGCGGCTTTCGACCACGTGCT (double strand) [dst1 promoter probe]”, for which the binding result is listed as “binds”.
